{"source": "patent US20220142214A1", "about": "“SYNERGISTIC COMPOSITION OF FOOD-BASED AND ORGANIC NUTRIENTS AND METHODS FOR USE AND MANUFACTURE” (priority 2020, published 2022)", "key": {"[1]": {"tested_on": "C. elegans", "test": "Longevity assay on automated lifespan machine", "format": "in vivo, Caenorhabditis elegans", "conditions": "Rapamycin treated groups"}, "[2]": {"tested_on": "C. elegans", "test": "Movement and healthspan analysis (activity, morphology, circularity)", "format": "in vivo, Caenorhabditis elegans"}}, "note": "For at least one compound, name, drawing or mass did not settle the structure.", "data": [{"smiles": "CO[C@H]1C[C@@H]2CC[C@@H](C)[C@@](O)(O2)C(=O)C(=O)N2CCCC[C@H]2C(=O)O[C@H]([C@H](C)C[C@@H]2CC[C@@H](O)[C@H](OC)C2)CC(=O)[C@H](C)/C=C(\\C)[C@@H](O)[C@@H](OC)C(=O)[C@H](C)C[C@H](C)/C=C/C=C/C=C/1C", "note": "[Rapamycin]", "values": [{"measurement": "lifespan", "setting": "[1]", "result": "increased longevity"}, {"measurement": "worm size and activity", "setting": "[2]; Rapamycin-treated worms", "result": "smaller and less active"}, {"measurement": "Average Circularity", "setting": "[2]; early in the lifespan assay, vs vehicle control", "result": "slightly greater circularity than the vehicle control group"}]}]}
